Reference: patent EP1948196B1, “USE OF TETRAORGANOSILICON COMPOUNDS” (Salama, Zoser B., priority 2005, dated 2007)
Not every detail of the peptide structures is certain; ends, links or a residue may be inferred. Some entries repeat one wording, which the source may state once for all of them. Numbered stars: 1 amine (or outer) side, 2 acyl side, 3 side chain; on linkers, the order of the positions; unused ones are H or OH. Bridge positions count the residues as written; N and C are the ends. Peptide text beside a SMILES is read from it. I, II: the chains in the order shown. X2 = c1ccc([Si](O[*:1])(O[*:2])c2ccccc2)cc1; OSi(nPr)2O = CCC[Si](CCC)(O[*:1])O[*:2]; X3 = CC(C)[Si](O[*:1])(O[*:2])C(C)C; OSiEt2O = CC[Si](CC)(O[*:1])O[*:2]

Assays:
[1] = test system: Plasmozytome
[2] = test system: Medulloblastome; assay: Effect on medulloblastomas
[3] = test system: Adenokarzinome; assay: Effect on adenocarcinomas
[4] = test system: Influenza-Viren; assay: Antiviral effect; conditions: in particular as vesicles holding antisense constructs
[5] = test system: Plattenepithelkarzinome; assay: Effect on squamous cell carcinomas

SMILES: NCC(=O)NCC(=O)NCC(=O)O[Si](OC(=O)CNC(=O)CNC(=O)CN)(c1ccccc1)c1ccccc1 [Diphenyl bis(triglycyl)silylester]
- Wirkung auf Plasmozytome [1]: zeigen eine Wirkung

SMILES: CCC[Si](CCC)(OC(=O)[C@H](Cc1ccccc1)NC(=O)[C@H](Cc1ccccc1)NC(=O)[C@H](Cc1ccccc1)NC(=O)[C@@H](N)Cc1ccccc1)OC(=O)[C@H](Cc1ccccc1)NC(=O)[C@H](Cc1ccccc1)NC(=O)[C@H](Cc1ccccc1)NC(=O)[C@@H](N)Cc1ccccc1 [Dipropyl bis(tetraphenylalanyl)silylester] (I: H-FFFF / II: H-FFFF; linker I:C-II:C via OSi(nPr)2O)
- Wirkung gegen Medulloblastome [2]: zeigen eine Wirkung

SMILES: CC[Si](CC)(OC(=O)[C@H](Cc1ccccc1)NC(=O)[C@H](Cc1ccccc1)NC(=O)[C@H](Cc1ccccc1)NC(=O)[C@H](Cc1ccccc1)NC(=O)[C@H](Cc1ccccc1)NC(=O)[C@H](Cc1ccccc1)NC(=O)[C@H](Cc1ccccc1)NC(=O)[C@@H](N)Cc1ccccc1)OC(=O)[C@H](Cc1ccccc1)NC(=O)[C@H](Cc1ccccc1)NC(=O)[C@H](Cc1ccccc1)NC(=O)[C@H](Cc1ccccc1)NC(=O)[C@H](Cc1ccccc1)NC(=O)[C@H](Cc1ccccc1)NC(=O)[C@H](Cc1ccccc1)NC(=O)[C@@H](N)Cc1ccccc1 [Diethyl bis(octaphenylalanyl)silylester] (I: H-FFFFFFFF / II: H-FFFFFFFF; linker I:C-II:C via OSiEt2O)
- Wirkung gegen Medulloblastome [2]: zeigen eine Wirkung

SMILES: NCC(=O)NCC(=O)NCC(=O)NCC(=O)NCC(=O)NCC(=O)NCC(=O)NCC(=O)O[Si](OC(=O)CNC(=O)CNC(=O)CNC(=O)CNC(=O)CNC(=O)CNC(=O)CNC(=O)CN)(c1ccccc1)c1ccccc1 [Diphenyl bis(octaglycyl)silylester] (I: H-GGGGGGGG / II: H-GGGGGGGG; linker I:C-II:C via X2)
- Wirkung auf Plasmozytome [1]: zeigen eine Wirkung

SMILES: NCC(=O)NCC(=O)NCC(=O)NCC(=O)NCC(=O)NCC(=O)NCC(=O)O[Si](OC(=O)CNC(=O)CNC(=O)CNC(=O)CNC(=O)CNC(=O)CNC(=O)CN)(c1ccccc1)c1ccccc1 [Diphenyl bis(heptaglycyl)silylester] (I: H-GGGGGGG / II: H-GGGGGGG; linker I:C-II:C via X2)
- Wirkung auf Plasmozytome [1]: zeigen eine Wirkung

SMILES: CC[Si](CC)(OC(=O)CNC(=O)CNC(=O)CN)OC(=O)CNC(=O)CNC(=O)CN [Diethyl bis(triglycyl)silylester]
- Wirkung gegen Medulloblastome [2]: zeigen eine Wirkung

SMILES: NCC(=O)NCC(=O)NCC(=O)NCC(=O)NCC(=O)NCC(=O)O[Si](OC(=O)CNC(=O)CNC(=O)CNC(=O)CNC(=O)CNC(=O)CN)(c1ccccc1)c1ccccc1 [Diphenyl bis(hexaglycyl)silylester]
- Wirkung auf Plasmozytome [1]: zeigen eine Wirkung

SMILES: CC[Si](CC)(OC(=O)[C@H](C)NC(=O)[C@H](C)NC(=O)[C@H](C)N)OC(=O)[C@H](C)NC(=O)[C@H](C)NC(=O)[C@H](C)N [Diethyl bis(trialanyl)silylester]
- Wirkung auf Adenokarzinome [3]: zeigen eine Wirkung

SMILES: CCC[Si](CCC)(OC(=O)CNC(=O)CNC(=O)CNC(=O)CNC(=O)CNC(=O)CNC(=O)CN)OC(=O)CNC(=O)CNC(=O)CNC(=O)CNC(=O)CNC(=O)CNC(=O)CN [Dipropyl bis(heptaglycyl)silylester] (I: H-GGGGGGG / II: H-GGGGGGG; linker I:C-II:C via OSi(nPr)2O)
- Wirkung gegen Influenza-Viren [4]: zeigen eine Wirkung

SMILES: CC[Si](CC)(OC(=O)[C@H](C)NC(=O)[C@H](C)NC(=O)[C@H](C)NC(=O)[C@H](C)NC(=O)[C@H](C)NC(=O)[C@H](C)N)OC(=O)[C@H](C)NC(=O)[C@H](C)NC(=O)[C@H](C)NC(=O)[C@H](C)NC(=O)[C@H](C)NC(=O)[C@H](C)N [Diethyl bis(hexaalanyl)silylester]
- Wirkung auf Adenokarzinome [3]: zeigen eine Wirkung

SMILES: CC[Si](CC)(OC(=O)[C@H](C)NC(=O)[C@H](C)NC(=O)[C@H](C)NC(=O)[C@H](C)NC(=O)[C@H](C)N)OC(=O)[C@H](C)NC(=O)[C@H](C)NC(=O)[C@H](C)NC(=O)[C@H](C)NC(=O)[C@H](C)N [Diethyl bis(pentaalanyl)silylester]
- Wirkung auf Adenokarzinome [3]: zeigen eine Wirkung

SMILES: CC[Si](CC)(OC(=O)[C@H](Cc1ccccc1)NC(=O)[C@H](Cc1ccccc1)NC(=O)[C@H](Cc1ccccc1)NC(=O)[C@H](Cc1ccccc1)NC(=O)[C@H](Cc1ccccc1)NC(=O)[C@H](Cc1ccccc1)NC(=O)[C@@H](N)Cc1ccccc1)OC(=O)[C@H](Cc1ccccc1)NC(=O)[C@H](Cc1ccccc1)NC(=O)[C@H](Cc1ccccc1)NC(=O)[C@H](Cc1ccccc1)NC(=O)[C@H](Cc1ccccc1)NC(=O)[C@H](Cc1ccccc1)NC(=O)[C@@H](N)Cc1ccccc1 [Diethyl bis(heptaphenylalanyl)silylester] (I: H-FFFFFFF / II: H-FFFFFFF; linker I:C-II:C via OSiEt2O)
- Wirkung gegen Medulloblastome [2]: zeigen eine Wirkung

SMILES: CCC[Si](CCC)(OC(=O)CNC(=O)CNC(=O)CNC(=O)CNC(=O)CNC(=O)CNC(=O)CNC(=O)CNC(=O)CNC(=O)CN)OC(=O)CNC(=O)CNC(=O)CNC(=O)CNC(=O)CNC(=O)CNC(=O)CNC(=O)CNC(=O)CNC(=O)CN [Dipropyl bis(decaglycyl)silylester]
- Wirkung gegen Influenza-Viren [4]: zeigen eine Wirkung

SMILES: NCC(=O)NCC(=O)NCC(=O)NCC(=O)NCC(=O)O[Si](OC(=O)CNC(=O)CNC(=O)CNC(=O)CNC(=O)CN)(c1ccccc1)c1ccccc1 [Diphenyl bis(pentaglycyl)silylester]
- Wirkung auf Plasmozytome [1]: zeigen eine Wirkung

SMILES: CCC[Si](CCC)(OC(=O)CNC(=O)CNC(=O)CNC(=O)CNC(=O)CNC(=O)CN)OC(=O)CNC(=O)CNC(=O)CNC(=O)CNC(=O)CNC(=O)CN [Dipropyl bis(hexaglycyl)silylester]
- Wirkung gegen Influenza-Viren [4]: zeigen eine Wirkung

SMILES: CC[Si](CC)(OC(=O)[C@H](Cc1ccccc1)NC(=O)[C@H](Cc1ccccc1)NC(=O)[C@H](Cc1ccccc1)NC(=O)[C@H](Cc1ccccc1)NC(=O)[C@H](Cc1ccccc1)NC(=O)[C@@H](N)Cc1ccccc1)OC(=O)[C@H](Cc1ccccc1)NC(=O)[C@H](Cc1ccccc1)NC(=O)[C@H](Cc1ccccc1)NC(=O)[C@H](Cc1ccccc1)NC(=O)[C@H](Cc1ccccc1)NC(=O)[C@@H](N)Cc1ccccc1 [Diethyl bis(hexaphenylalanyl)silylester] (I: H-FFFFFF / II: H-FFFFFF; linker I:C-II:C via OSiEt2O)
- Wirkung gegen Medulloblastome [2]: zeigen eine Wirkung

SMILES: CCC[Si](CCC)(OC(=O)CNC(=O)CNC(=O)CNC(=O)CNC(=O)CNC(=O)CNC(=O)CNC(=O)CNC(=O)CN)OC(=O)CNC(=O)CNC(=O)CNC(=O)CNC(=O)CNC(=O)CNC(=O)CNC(=O)CNC(=O)CN [Dipropyl bis(nonaglycyl)silylester]
- Wirkung gegen Influenza-Viren [4]: zeigen eine Wirkung

SMILES: CC[Si](CC)(OC(=O)[C@H](C)NC(=O)[C@H](C)NC(=O)[C@H](C)NC(=O)[C@H](C)NC(=O)[C@H](C)NC(=O)[C@H](C)NC(=O)[C@H](C)N)OC(=O)[C@H](C)NC(=O)[C@H](C)NC(=O)[C@H](C)NC(=O)[C@H](C)NC(=O)[C@H](C)NC(=O)[C@H](C)NC(=O)[C@H](C)N [Diethyl bis(heptaalanyl)silylester] (I: H-AAAAAAA / II: H-AAAAAAA; linker I:C-II:C via OSiEt2O)
- Wirkung auf Adenokarzinome [3]: zeigen eine Wirkung

SMILES: N[C@@H](Cc1ccccc1)C(=O)N[C@@H](Cc1ccccc1)C(=O)N[C@@H](Cc1ccccc1)C(=O)N[C@@H](Cc1ccccc1)C(=O)N[C@@H](Cc1ccccc1)C(=O)O[Si](OC(=O)[C@H](Cc1ccccc1)NC(=O)[C@H](Cc1ccccc1)NC(=O)[C@H](Cc1ccccc1)NC(=O)[C@H](Cc1ccccc1)NC(=O)[C@@H](N)Cc1ccccc1)(c1ccccc1)c1ccccc1 [Diphenyl bis(pentaphenylalanyl)silylester]
- Wirkung auf Plasmozytome [1]: zeigen eine Wirkung

SMILES: CCC[Si](CCC)(OC(=O)[C@H](Cc1ccccc1)NC(=O)[C@H](Cc1ccccc1)NC(=O)[C@H](Cc1ccccc1)NC(=O)[C@H](Cc1ccccc1)NC(=O)[C@@H](N)Cc1ccccc1)OC(=O)[C@H](Cc1ccccc1)NC(=O)[C@H](Cc1ccccc1)NC(=O)[C@H](Cc1ccccc1)NC(=O)[C@H](Cc1ccccc1)NC(=O)[C@@H](N)Cc1ccccc1 [Dipropyl bis(pentaphenylalanyl)silylester] (I: H-FFFFF / II: H-FFFFF; linker I:C-II:C via OSi(nPr)2O)
- Wirkung gegen Medulloblastome [2]: zeigen eine Wirkung

SMILES: CC(C)[Si](OC(=O)[C@H](C)NC(=O)[C@H](C)NC(=O)[C@H](C)NC(=O)[C@H](C)NC(=O)[C@H](C)NC(=O)[C@H](C)NC(=O)[C@H](C)NC(=O)[C@H](C)NC(=O)[C@H](C)N)(OC(=O)[C@H](C)NC(=O)[C@H](C)NC(=O)[C@H](C)NC(=O)[C@H](C)NC(=O)[C@H](C)NC(=O)[C@H](C)NC(=O)[C@H](C)NC(=O)[C@H](C)NC(=O)[C@H](C)N)C(C)C [Diisopropyl bis(nonaalanyl)silylester] (I: H-AAAAAAAAA / II: H-AAAAAAAAA; linker I:C-II:C via X3)
- Wirkung gegen Plattenepithelkarzinome [5]: zeigen eine Wirkung

SMILES: NCC(=O)NCC(=O)NCC(=O)NCC(=O)NCC(=O)NCC(=O)NCC(=O)NCC(=O)NCC(=O)O[Si](OC(=O)CNC(=O)CNC(=O)CNC(=O)CNC(=O)CNC(=O)CNC(=O)CNC(=O)CNC(=O)CN)(c1ccccc1)c1ccccc1 [Diphenyl bis(nonaglycyl)silylester]
- Wirkung auf Plasmozytome [1]: zeigen eine Wirkung

SMILES: CCC[Si](CCC)(OC(=O)CNC(=O)CNC(=O)CNC(=O)CNC(=O)CNC(=O)CNC(=O)CNC(=O)CN)OC(=O)CNC(=O)CNC(=O)CNC(=O)CNC(=O)CNC(=O)CNC(=O)CNC(=O)CN [Dipropyl bis(octaglycyl)silylester] (I: H-GGGGGGGG / II: H-GGGGGGGG; linker I:C-II:C via OSi(nPr)2O)
- Wirkung gegen Influenza-Viren [4]: zeigen eine Wirkung

SMILES: NCC(=O)NCC(=O)NCC(=O)NCC(=O)NCC(=O)NCC(=O)NCC(=O)NCC(=O)NCC(=O)NCC(=O)O[Si](OC(=O)CNC(=O)CNC(=O)CNC(=O)CNC(=O)CNC(=O)CNC(=O)CNC(=O)CNC(=O)CNC(=O)CN)(c1ccccc1)c1ccccc1 [Diphenyl bis(decaglycyl)silylester]
- Wirkung auf Plasmozytome [1]: zeigen eine Wirkung

SMILES: CCC[Si](CCC)(OC(=O)[C@H](Cc1ccccc1)NC(=O)[C@H](Cc1ccccc1)NC(=O)[C@@H](N)Cc1ccccc1)OC(=O)[C@H](Cc1ccccc1)NC(=O)[C@H](Cc1ccccc1)NC(=O)[C@@H](N)Cc1ccccc1 [Dipropyl bis(triphenylalanyl)silylester]
- Wirkung gegen Medulloblastome [2]: zeigen eine Wirkung
